The list does not hold the whole screen: it is rich in T/C values a quarter to a half above the control, in often repeated tests (any T/C) and in doses without a T/C. Further doses and runs are listed elsewhere. T/C is the treated group as % of the vehicle group. Some doses have a count of surviving animals in place of a T/C: the source holds a T/C of zero for them, seemingly a mark for toxic or unscored doses. Some survivor counts are full or nearly so, which does not show that the dose was tolerated: survival well below the control is almost never listed, so the zero probably covers shortened survival too. Survivors were counted at the toxicity check, usually on the fifth day, unless a day is given; later deaths do not show. Schedules are NCI's codes, taken here to give the interval after Q, in days (D) or hours (H), and the number of doses after X. Some entries were tested several times; the values are given in rising order. For survival time, the PubChem record calls one and a half times the control and up active, and a quarter to a half above the control has no call in these data; cut-offs in other NCI protocols can differ. Some T/C values carry the count of animals alive at the toxicity check (mostly the fifth day); where none is given, no animal had died by that day.
Tested on: P388 leukemia ip, CD2F1 mice, survival T/C
Experiment: NCI In Vivo Anticancer Drug Screen. Data for tumor model P388 Leukemia (intraperitoneal) in CD2F1 (CDF1) mice
Conditions: T/C endpoint: median survival time, higher T/C = longer survival
[1] = dose: 100.0 mg/kg/injection, schedule: Q01DX009 (ip), vehicle: Klucel (hydroxypropylcellulose) (HPC)

In the case of `C=C1C(=O)OC2/C=C(/CO)C3(O)CC(O)C(C)(CC(OC(=O)/C(C)=C/C)C12)O3` (stereo not drawn), the T/C (dose: 5.0 mg/kg/injection, schedule: Q01DX009 (ip), vehicle: saline with Tween-80) is reported as 134 % of control, the T/C (dose: 20.0 mg/kg/injection, schedule: Q01DX009 (ip), vehicle: saline with Tween-80) is reported as 128 % of control and the survivor count (dose: 40.0 mg/kg/injection, schedule: Q01DX009 (ip), vehicle: saline with Tween-80) is reported as 0 of 6 and 3 of 6. The survivor count (dose: 80.0 mg/kg/injection, schedule: Q01DX009 (ip), vehicle: saline with Tween-80) was 0 of 6.
`CSc1nccc2ccccc12` was tested, and the survivor count (dose: 100.0 mg/kg/injection, schedule: Q01DX009 (ip), vehicle: other) was 6 of 6 and the survivor count (dose: 200.0 mg/kg/injection, schedule: Q01DX009 (ip), vehicle: other) was 3 of 6.
With `CSc1nc2ccc(NC(C)=O)cc2s1` the survivor count [1] was 6 of 6.
For `CN=NNCc1ccccc1`, the T/C (dose: 12.5 mg/kg/injection, schedule: Q01DX005 (ip), vehicle: saline) was 130 % of control, the survivor count (dose: 50.0 mg/kg/injection, schedule: Q01DX005 (ip), vehicle: saline with Tween-80) was 5 of 5 and the survivor count (dose: 100.0 mg/kg/injection, schedule: Q01DX005 (ip), vehicle: saline with Tween-80) was 0 of 5. The survivor count (dose: 200.0 mg/kg/injection, schedule: Q01DX005 (ip), vehicle: saline with Tween-80) was 0 of 5.
For `NC(=O)c1c(Cl)nc2sccn12`, the survivor count (dose: 200.0 mg/kg/injection, schedule: Q01DX001 (ip), vehicle: saline with Tween-80) was 0 of 6 and the survivor count (dose: 400.0 mg/kg/injection, schedule: Q01DX001 (ip), vehicle: saline with Tween-80) was 0 of 6.
For `COc1cc(NS(C)(=O)=O)ccc1Nc1c2ccccc2nc2cc(C(F)(F)F)c(N)cc12`, the T/C (dose: 12.5 mg/kg/injection, schedule: Q01DX009 (ip), vehicle: Klucel (hydroxypropylcellulose) (HPC)) was 129 % of control, the survivor count (dose: 64.8 mg/kg/injection, schedule: Q04DX003 (ip), vehicle: water) was 4 of 8 and the survivor count [1] was 5 of 6. The T/C (dose: 100.0 mg/kg/injection, schedule: Q04DX003 (ip), vehicle: distilled water + Tween-80) was 133 % of control [6 of 8 alive], the survivor count (dose: 108.0 mg/kg/injection, schedule: Q04DX003 (ip), vehicle: water) was 2 of 8 and the survivor count (dose: 180.0 mg/kg/injection, schedule: Q04DX003 (ip), vehicle: water) was 0 of 8. The survivor count (dose: 200.0 mg/kg/injection, schedule: Q01DX009 (ip), vehicle: Klucel (hydroxypropylcellulose) (HPC)) was 5 of 6, the survivor count (dose: 300.0 mg/kg/injection, schedule: Q04DX003 (ip), vehicle: water) was 0 of 8 and the survivor count (dose: 400.0 mg/kg/injection, schedule: Q01DX009 (ip), vehicle: Klucel (hydroxypropylcellulose) (HPC)) was 2 of 6. The survivor count (dose: 500.0 mg/kg/injection, schedule: Q04DX003 (ip), vehicle: water) was 0 of 8.
With `CC(=O)Nc1ccc(/C=C\c2ccnc3ccccc23)cc1` the T/C (dose: 50.0 mg/kg/injection, schedule: Q04DX002 (ip), vehicle: saline with Tween-80) was 129 % of control and the survivor count (dose: 100.0 mg/kg/injection, schedule: Q04DX002 (ip), vehicle: saline with Tween-80) was 6 of 6.
In the case of `Cc1cccc(Nc2nc(C)nc3[nH]cc(-c4ccccc4)c23)c1`, the survivor count (dose: 25.0 mg/kg/injection, schedule: Q01DX005 (ip), vehicle: Klucel (hydroxypropylcellulose) (HPC)) is reported as 6 of 6, the survivor count (dose: 50.0 mg/kg/injection, schedule: Q01DX005 (ip), vehicle: Klucel (hydroxypropylcellulose) (HPC)) is reported as 6 of 6 and the survivor count (dose: 100.0 mg/kg/injection, schedule: Q01DX005 (ip), vehicle: Klucel (hydroxypropylcellulose) (HPC)) is reported as 6 of 6.

Reference: PubChem BioAssay AID330 (DTP/NCI, 2004)
